From paper PMC4438588
Results are given in words; binding and its absence hold for the method and conditions named. For some assays here: Binding seen in cells or lysates may run through a third protein. Some entries that bind do so weakly or less than the wild type. Where a sequence is shown, tags or fusion partners need not be part of it.

Assays:
[1] = biological target: T1, ASX-C terminal domain (ASX-C, amino-acids 1139 to 1668), two-hybrid bait (Drosophila) (UniProt Q9V727); assay: two-hybrid; yeast two-hybrid assays, data not shown; ASX-C with Cyclin G 1 to 275
T1 sequence: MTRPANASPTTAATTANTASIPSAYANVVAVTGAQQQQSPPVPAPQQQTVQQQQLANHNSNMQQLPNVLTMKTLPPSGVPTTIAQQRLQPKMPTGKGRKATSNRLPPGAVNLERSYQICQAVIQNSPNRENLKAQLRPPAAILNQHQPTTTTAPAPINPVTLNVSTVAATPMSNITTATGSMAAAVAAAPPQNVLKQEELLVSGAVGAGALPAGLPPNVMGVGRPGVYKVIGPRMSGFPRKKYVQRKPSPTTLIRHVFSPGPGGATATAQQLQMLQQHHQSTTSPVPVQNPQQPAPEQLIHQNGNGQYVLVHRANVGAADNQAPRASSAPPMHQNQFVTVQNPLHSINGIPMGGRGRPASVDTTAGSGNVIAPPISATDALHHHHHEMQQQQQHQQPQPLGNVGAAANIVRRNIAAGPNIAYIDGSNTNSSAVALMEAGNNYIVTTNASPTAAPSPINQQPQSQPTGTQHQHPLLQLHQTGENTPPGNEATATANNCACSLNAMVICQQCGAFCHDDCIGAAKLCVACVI

[2] = biological target: T2, Myc-ASX-C (amino-acids 1139 to 1668) (Drosophila melanogaster) (UniProt Q9V727); assay: co-IP; co-transfected S2 cells, 1% paraformaldehyde 10 min on ice before extraction; 500 μg total cell extract, anti-Myc, anti-FLAG or anti-HA (mock) overnight at 4°C, Protein G beads, ELB buffer washes; Western blot with anti-Myc and anti-FLAG
T2 sequence: T1 sequence

[3] = biological target: T3, FLAG-CycG 1 to 130 (Drosophila melanogaster) (UniProt Q95TJ9); assay: as above
T3 sequence: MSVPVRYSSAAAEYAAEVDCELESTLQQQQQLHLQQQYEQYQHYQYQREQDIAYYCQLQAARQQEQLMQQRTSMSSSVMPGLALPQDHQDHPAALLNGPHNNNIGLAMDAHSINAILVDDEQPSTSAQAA

[4] = biological target: Additional sex combs (ASX), endogenous (Drosophila melanogaster (endogenous in third instar larvae)) (UniProt Q9V727); assay: co-IP; protein extracts of da > Myc-CycG^ΔP third instar larvae, 1% paraformaldehyde 10 min at room temperature; anti-Myc, anti-ASX N-ter or anti-HA (mock) on Dynabeads Protein G, overnight at 4°C, ELB buffer washes; Western blot with anti-Myc

B1: Cyclin G deleted form containing only the 275 N-terminal residues, two-hybrid fusion (domain or fragment, UniProt Q95TJ9 1-275)
chain: MSVPVRYSSAAAEYAAEVDCELESTLQQQQQLHLQQQYEQYQHYQYQREQDIAYYCQLQAARQQEQLMQQRTSMSSSVMPGLALPQDHQDHPAALLNGPHNNNIGLAMDAHSINAILVDDEQPSTSAQAAAAAAASAGGSAGAGSGSGLGGAIGGGKLANGINRNAEMPTDWMRIADEGRYGTPGAAGLEYQKYEQQQQLEDLAESEAGAVGGASNNNGESSSSLKKLEDQLHALTSDELYETLKEYDVLQDKFHTVLLLPKESRREVTAGGRDG
B1 was tested, and the binding [1] was “binds”.

B2: FLAG-Cyclin G full-length (protein, UniProt Q95TJ9 1-566)
chain: MSVPVRYSSAAAEYAAEVDCELESTLQQQQQLHLQQQYEQYQHYQYQREQDIAYYCQLQAARQQEQLMQQRTSMSSSVMPGLALPQDHQDHPAALLNGPHNNNIGLAMDAHSINAILVDDEQPSTSAQAAAAAAASAGGSAGAGSGSGLGGAIGGGKLANGINRNAEMPTDWMRIADEGRYGTPGAAGLEYQKYEQQQQLEDLAESEAGAVGGASNNNGESSSSLKKLEDQLHALTSDELYETLKEYDVLQDKFHTVLLLPKESRREVTAGGRDGSAYVLRCLKMWYELPSDVLFSAMSLVDRFLDRMAVKPKHMACMSVASFHLAIKQLDLKPIPAEDLVTISQCGCTAGDLERMAGVIANKLGVQMGHAPITSVSYLRIYYALFRNLAKEIGGDFFKFYQQLIKLEELENRLEILMCDVKTTVITPSTLALVLICLHLDFHIKESYTRGSPELKHVFEYILFLQQYMRIPDRVFTCGFSIVSGILSHYNGQNKAPYKQRLVWKLSSRTLRVLRPINRFSSDLPTIEEGIPNALDDGLRSRTESISSEEEEDWPTSPIIPIFEQC
B2 was tested, and the binding [2] was “binds”.

B3: Myc-ASX-C (amino-acids 1139 to 1668) (domain or fragment, UniProt Q9V727 1139-1668)
chain: T1 sequence
In the case of B3, the binding [3] is reported as “binds”.

B4: FLAG-CycG 130 to 566 (domain or fragment, UniProt Q95TJ9 130-566)
chain: AAAAAASAGGSAGAGSGSGLGGAIGGGKLANGINRNAEMPTDWMRIADEGRYGTPGAAGLEYQKYEQQQQLEDLAESEAGAVGGASNNNGESSSSLKKLEDQLHALTSDELYETLKEYDVLQDKFHTVLLLPKESRREVTAGGRDGSAYVLRCLKMWYELPSDVLFSAMSLVDRFLDRMAVKPKHMACMSVASFHLAIKQLDLKPIPAEDLVTISQCGCTAGDLERMAGVIANKLGVQMGHAPITSVSYLRIYYALFRNLAKEIGGDFFKFYQQLIKLEELENRLEILMCDVKTTVITPSTLALVLICLHLDFHIKESYTRGSPELKHVFEYILFLQQYMRIPDRVFTCGFSIVSGILSHYNGQNKAPYKQRLVWKLSSRTLRVLRPINRFSSDLPTIEEGIPNALDDGLRSRTESISSEEEEDWPTSPIIPIFEQC
With B4 the binding [2] was “binds”.

B5: Myc-Cyclin G deleted of the 25 C-terminal amino-acids (Myc-CycG^ΔP) (domain or fragment, UniProt Q95TJ9 1-541)
chain: MSVPVRYSSAAAEYAAEVDCELESTLQQQQQLHLQQQYEQYQHYQYQREQDIAYYCQLQAARQQEQLMQQRTSMSSSVMPGLALPQDHQDHPAALLNGPHNNNIGLAMDAHSINAILVDDEQPSTSAQAAAAAAASAGGSAGAGSGSGLGGAIGGGKLANGINRNAEMPTDWMRIADEGRYGTPGAAGLEYQKYEQQQQLEDLAESEAGAVGGASNNNGESSSSLKKLEDQLHALTSDELYETLKEYDVLQDKFHTVLLLPKESRREVTAGGRDGSAYVLRCLKMWYELPSDVLFSAMSLVDRFLDRMAVKPKHMACMSVASFHLAIKQLDLKPIPAEDLVTISQCGCTAGDLERMAGVIANKLGVQMGHAPITSVSYLRIYYALFRNLAKEIGGDFFKFYQQLIKLEELENRLEILMCDVKTTVITPSTLALVLICLHLDFHIKESYTRGSPELKHVFEYILFLQQYMRIPDRVFTCGFSIVSGILSHYNGQNKAPYKQRLVWKLSSRTLRVLRPINRFSSDLPTIEEGIPNALDDGLRS
With B5 the binding [4] was “binds”.
